Laboratory results taken from PubChem BioAssay AID2417 (National Center for Advancing Translational Sciences (NCATS), 2010).
Hit rate of the full screen: of about 140,000 compounds, about 4,300 (3.1%) were called active. The shares of active, inactive and inconclusive entries below differ from those in the screen.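 How the source made its calls: active means readout at or below -70, meaning at least 70% loss of cells showing the perinucleolar compartment, a nuclear body marking cancer cells; inconclusive means readout between -30 and a set limit; inactive means the rest.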

Experiment: High Content Assay for Compounds that inhibit the Assembly of the Perinucleolar Compartment;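 further: plate controls were DMSO wells for no effect and camptothecin positive control wells for full effect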
Details: PC3M PTB-GFP, PNC prevalence imaging, 16 h; at 10 µM; stronger effect = lower value
Outline: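 PC3M cells stably expressing PTB-GFP, 750–1000 cells/well, treated 16 h at 37 °C with compound (23 nl of library stock), in duplicate. After paraformaldehyde fixation and Hoechst stain, imaged at 20x; PNC prevalence scored by image analysis.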

Compound	activity change (PNC), negative = inhibition
CCCCSc1nc(C)c(CC(=O)O)c(=O)[nH]1	inconclusive: -50.5%
O=C(CSC1=NCCS1)Nc1nc(-c2ccccc2)cs1	inconclusive: -34.7%
Cc1cccc(C)c1NC(=S)N1CCC(N(C)CC2CCCO2)CC1 (configuration not stated)	inconclusive: -38.7%
CC(=O)c1ccc(NS(=O)(=O)c2ccc(C)cc2)cc1	inconclusive: -36.8%
CC1=NN(/C(=N\c2nnc(C)s2)Nc2ccccc2)[C@H](c2cccc3ccccc23)S1	inconclusive: -41.5%
COc1ccc(/C=C2\SC(=S)N(CCCC(=O)Nc3ccccn3)C2=O)cc1OC	inconclusive: -39.6%
Fc1ccc(-c2nnc(CN3CCN(c4ncc(C(F)(F)F)cc4Cl)CC3)o2)cc1	inconclusive: -47.2%
CCC(C)NS(=O)(=O)c1ccc(NS(=O)(=O)c2ccc(F)cc2)cc1 (configuration not stated)	inconclusive: -38.5%
Cc1ccccc1OCC(O)Cn1c(NCCN(C)C)nc2c1c(=O)n(C)c(=O)n2C (configuration not stated)	inactive: 11.1%
O/N=C1/CCSc2ccccc21	inconclusive: -37.6%
CCCn1nc2cc(C(=O)N(CC)c3ccc(OC)cc3)ccc2c1OCC	inactive: -12.5%
COc1ccccc1-n1c(CNC(=O)c2ccco2)nnc1SCC(=O)Nc1cc(C)ccc1C	inconclusive: -38.3%
c1cnc2ccc(C(c3nnnn3C3CCCCC3)N3CCCCC3)cc2c1 (configuration not stated)	active: -100%
Cc1cc2ncn(/N=C/c3ccc(-c4ccccc4)o3)c2cc1C	inactive: -9.33%
Cc1ccc(N(CC(=O)O)S(=O)(=O)c2cccc3nonc23)cc1	inconclusive: -36.5%
O=C(O)c1ccc(N/N=C/c2ccc(OC(=O)c3ccccc3Cl)cc2)cc1	inconclusive: -37%
Cn1cnnc1Sc1cc(N2CCN(S(=O)(=O)c3ccc4ccccc4c3)CC2)ccc1[N+](=O)[O-]	inactive: 55.8%
Cc1cc(C)n(-c2nc3sc4c(c3c(=O)[nH]2)CCCC4)n1	inconclusive: -34.7%
N#Cc1nc(COc2ccc(Cl)cc2Cl)oc1N1CCN(c2ccccc2)CC1	inconclusive: -30.4%

Retrieved by compound from the entries so far:
Compound	activity change (PNC), negative = inhibition
N#Cc1nc(COc2ccc(Cl)cc2Cl)oc1N1CCN(c2ccccc2)CC1	inconclusive: -30.4%
COc1ccccc1-n1c(CNC(=O)c2ccco2)nnc1SCC(=O)Nc1cc(C)ccc1C	inconclusive: -38.3%
Cn1cnnc1Sc1cc(N2CCN(S(=O)(=O)c3ccc4ccccc4c3)CC2)ccc1[N+](=O)[O-]	inactive: 55.8%

Following part.

Compound	activity change (PNC), negative = inhibition
COc1ccc([N+](=O)[O-])cc1NC(=O)Cc1ccccc1Cl	inconclusive: -41.2%
O=C(Oc1cccc2c(OC(=O)N3CCCC3)cccc12)N1CCCC1	active: -100%
Cc1ccc(C(=O)c2ccc(O)cc2)cc1C	inconclusive: -65.5%
O=C(COC(=O)c1c(Cl)ccc(Cl)c1Cl)NC(=O)NCc1ccccc1	inconclusive: -68.1%
O=c1c2cc3c(cc2[nH]c(=S)n1Cc1ccco1)OCO3	inconclusive: -46.1%
Cc1ccc(C(CCN(Cc2ccccc2)C(=O)c2ccco2)c2ccco2)cc1 (configuration not stated)	inconclusive: -34.4%
N#CC1=C(N)OC2=C(CCc3ccccc32)C1c1ccccc1 (configuration not stated)	active: -82.6%
c1ccc(-c2cc3c(N4CCOCC4)ncnc3s2)cc1	active: -96.6%
CC(C)c1nnc(SCC(=O)NCc2ccc3c(c2)OCO3)n1C	active: -100%
CC(=O)c1ccc(NC(=O)c2ccc(S(=O)(=O)N3CCCC3)cc2)cc1	inactive: 35%
CCCCn1c(-c2ccoc2C)n[nH]c1=S	inconclusive: -61.3%
O=C(O)/C=C/c1ccc2c(-c3ccccc3)onc2c1	inconclusive: -51.4%
CC(=O)Nc1sc2c(c1CN1CCN(c3ccccn3)CC1)CCCC2	inactive: 30.2%
CC(C)C(NC(=O)COc1ccc2ccccc2c1)C(=O)N/N=C/C=C/c1ccccc1 (configuration not stated)	inactive: 54.4%
CSc1oc(-c2ccco2)nc1S(=O)(=O)c1ccc(Br)cc1	inconclusive: -37.2%
Cc1cc(C(=O)Nc2sc(C)c(C)c2C#N)no1	inconclusive: -64.5%
CCOc1ccc(-c2nnn(CCC(=O)O)n2)cc1OC	inconclusive: -68.9%
Nc1ncc(Br)cc1Br	inconclusive: -37.2%
O=C(NC1CCCCC1)N(Cc1cc2cc3c(cc2[nH]c1=O)OCCO3)C1CCCCC1	inconclusive: -38.1%

Compound	activity change (PNC), negative = inhibition
O=C(CN1C(=O)NC2(CCCCCC2)C1=O)c1ccc2c(c1)OCCO2	inconclusive: -51.3%
CCOc1ccc(S(=O)(=O)Nc2ccc(F)cc2)c(C)c1C	inactive: 61.1%
Cc1cc(S(=O)(=O)N2CCC(NC(=O)C34CC5CC(CC(C5)C3)C4)CC2)ccc1-n1cnnn1	inactive: 28.7%
COc1ccc(N2CCN(C(=O)CCCn3c(=O)[nH]c4ccsc4c3=O)CC2)cc1	inconclusive: -36.7%
O=C(Cn1c(=O)oc2ccccc21)Nc1nnc(N2CCCCCC2)s1	inconclusive: -43.9%
COc1cccc(/C=N/NC(=O)CC2C(=O)NN=C2C)c1O (configuration not stated)	inactive: 11.4%
c1ccc(-c2nnc3ccc(N4CCC5(CC4)OCCO5)nn23)cc1	inconclusive: -37.6%
CC(=O)c1cc(C#N)c(SCc2ccccc2)nc1C	inconclusive: -51.1%
CCOC(=O)CNc1nc(-c2ccncc2)nc2ccccc12	inconclusive: -41%
COc1ccc(O[C@H]2C=C[C@@H](c3ccccc3)O[C@@H]2CO/N=C(\C)CCN2CCc3nc(-c4ccccc4)c(-c4ccccc4)cc3C2)cc1	inconclusive: -70.2%
CCOc1nc(C)ccc1-c1noc(CC)n1	inconclusive: -70.6%
COc1ccc(C)cc1S(=O)(=O)Nc1ccccc1C	inconclusive: -68.4%
COc1ccc(NC(=O)c2ccc(COc3ccccc3)o2)cc1	inactive: 11.5%
Cc1cccc2nc(CSc3nc4ccc([N+](=O)[O-])cc4[nH]3)cn12	inconclusive: -59.8%
Cc1ccc(C(=O)O)cc1S(=O)(=O)NCC1CCCO1 (configuration not stated)	inconclusive: -66.7%
Cc1ccc(N2CCN(C(=O)c3ccccc3NC(=O)C3CC=CCC3C(=O)O)CC2)cc1 (configuration not stated)	inactive: 53.8%
C=CCn1c(NC(=O)c2ccc(Br)o2)c(S(=O)(=O)c2ccccc2)c2nc3ccccc3nc21	inactive: -15.8%
COC(=O)c1sc(N2C(=O)C(O)=C(C(=O)c3ccc(C)o3)C2c2ccc(F)cc2)nc1C (configuration not stated)	inactive: 16.9%
CC(Oc1ccccc1)c1ccnn1S(=O)(=O)c1ccccc1 (configuration not stated)	inconclusive: -40.4%
